Test results from the supplement of paper PMC12067093, “Discovery and optimisation of a covalent ligand for TRIM25 and its application to targeted protein ubiquitination” (Chemical Science, 2025).
The other results are listed elsewhere or left out.

Compound: Cc1cc(ccc1-c1ccccc1)C(=O)N1CCCN(CC1)C(=O)CCl [compound 10]
Test: probe-labelled cysteine peptide fold change vs DMSO (competition) (log2 fold change); higher = less target engagement (more negative = stronger competition)
Conditions: THP-1, incubation time: 4 h
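Note: competitive profiling in live THP-1 cells: cysteine peptides tagged with an iodoacetamide desthiobiotin (IA-DTB) probe, intensity after compound treatment relative to DMSO-treated cells.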

| Target | probe-labelled cysteine peptide fold change (10 µM) | probe-labelled cysteine peptide fold change (50 µM) |
| --- | --- | --- |
| FILIP1L_Q4L180_990_AQTPESCGSLTPER (UniProt Q4L180) | -0.305 | 0.00388 |
| FLII_Q13045_560_ACSAIHAVNLR (UniProt Q13045) | 0.105 | -0.0246 |
| FSCN1_Q16658_89_EVPGPDCR (UniProt Q16658) | 0.0368 | 0.13 |
| FUBP1_Q96AE4_132_IQQESGCK (UniProt Q96AE4) | 0.585 | 0.279 |
| FLOT1_O75955_85_EMLAAACQMFLGK (UniProt O75955) | 0.0672 | 0.208 |
| G6PD_P11413_158_NIHESCMSQIGWNR (UniProt P11413) | 0.148 | -0.082 |
| FYCO1_Q9BQS8_928_ERVEEALACAVQELQDAK (UniProt Q9BQS8) | 0.104 | 0.173 |
| GALK1_P51570_203_GHALLIDCR (UniProt P51570) | 0.226 | 0.303 |
| FKBP5_Q13451_215_MQREEQCILYLGPR (UniProt Q13451) | 0.0798 | -0.172 |
| GABPA_Q06546_69_LQCSLDAHEICLQDIQLDPER (UniProt Q06546) | 0.331 | -0.0571 |
| FSCN1_Q16658_226_VAFRDCEGR (UniProt Q16658) | -0.244 | -0.563 |
| FKBP3_Q00688_133_KGDVVHCWYTGTLQDGTVFDTNIQTSAK (UniProt Q00688) | 0.106 | -0.0529 |
| FLNB_O75369_991_KVVPCLVTPVTGR (UniProt O75369) | -0.046 | -0.106 |
| FXR1_P51114_129+141_CTVDVPEDLREACANENAHK (UniProt P51114) | -0.000958 | -0.0928 |
| FIG4_Q92562_652_HLPLPYDEVICAVNLK (UniProt Q92562) | 0.25 | 0.467 |
| G6PD_P11413_13_TQVCGILR (UniProt P11413) | 0.112 | 0.00731 |
| FTH1_P02794_131_NDPHLCDFIETHYLNEQVK (UniProt P02794) | 0.709 | 0.714 |
| FHL3_Q13643_251_HWHHNCFSCAR (UniProt Q13643) | 0.102 | -0.0572 |
| G6PD_P11413_232_DNIACVILTFK (UniProt P11413) | -0.0864 | 0.845 |
| FYCO1_Q9BQS8_293_LTCLVAELQK (UniProt Q9BQS8) | 0.0275 | 0.224 |
| FHOD1_Q9Y613_373_SLEGGGCPAR (UniProt Q9Y613) | -0.139 | 0.0101 |
| FUBP3_Q96I24_366_CGLVIGK (UniProt Q96I24) | 0.0932 | -0.113 |

| Target | probe-labelled cysteine peptide fold change (10 µM) | probe-labelled cysteine peptide fold change (50 µM) |
| --- | --- | --- |
| FNBP1_Q96RU3_511_RQSGLYDSQNPPTVNNCAQDR (UniProt Q96RU3) | 0.158 | -0.162 |
| FOXP1_Q9H334_29_SNGSAIQNGSGGSNHLLECGGLR (UniProt Q9H334) | -0.0915 | -0.162 |
| FLAD1_Q8NFF5_236_LHYGTDPCTGQPFR (UniProt Q8NFF5) | -0.154 | -0.0755 |
| FLAD1_Q8NFF5_147_SLGVQVCR (UniProt Q8NFF5) | 0.131 | -0.00527 |
| GALK1_P51570_351_MTGGGFGGCTVTLLEASAAPHAMR (UniProt P51570) | 0.164 | 0.0867 |
| G3BP2_Q9UN86_73_VLSLNFSECHTK (UniProt Q9UN86) | 0.143 | 0.0138 |
| FRG1_Q14331_205_QCEINYVK (UniProt Q14331) | -0.243 | -0.322 |
| FTO_Q9C0B1_171_ANEDAVPLCMSADFPR (UniProt Q9C0B1) | -0.249 | -0.328 |
| GABPB1_Q06547_331_QCIEIIENR (UniProt Q06547) | -0.297 | -0.0145 |
| FKBP1A_P62942_23_GQTCVVHYTGMLEDGK (UniProt P62942) | 0.148 | -0.0201 |
| FUS_P35637_444_NECNQCK (UniProt P35637) | 0.241 | 0.122 |
| FLNB_O75369_1868_AEISCIDNK (UniProt O75369) | 0.0316 | 0.123 |
| FLII_Q13045_1265_CFHAWSAFCK (UniProt Q13045) | 0.0194 | 0.159 |
| FSCN1_Q16658_121_YFGGTEDRLSCFAQTVSPAEK (UniProt Q16658) | -0.481 | -0.838 |
| FHOD1_Q9Y613_164_DLVPEFVHSEGLSCLIR (UniProt Q9Y613) | 0.209 | 0.238 |
| FUT4_P22083_211_DSAPRPPPDCR (UniProt P22083) | -0.0442 | 0.387 |
| FRY_Q5TBA9_2404_LVHVLSLCGQEVGLSK (UniProt Q5TBA9) | -0.301 | -0.0537 |
| FKBP4_Q02790_342_LQAFSAAIESCNK (UniProt Q02790) | 0.18 | 0.221 |
| FLNB_O75369_416_CVYKPMQPGPHVVK (UniProt O75369) | 0.0164 | -0.502 |
| FKBP4_Q02790_328_LASHLNLAMCHLK (UniProt Q02790) | 0.0898 | 0.132 |
| FTO_Q9C0B1_392_CTDWWCQPMAQLEALWK (UniProt Q9C0B1) | -0.031 | -0.231 |
| FLNB_O75369_1326_VAVTEGCQPSR (UniProt O75369) | -0.107 | 0.0542 |

| Target | probe-labelled cysteine peptide fold change (10 µM) | probe-labelled cysteine peptide fold change (50 µM) |
| --- | --- | --- |
| FNBP1L_Q5T0N5_543_GPPQQHGHHNEFDDEFEDDDPLPAIGHCK (UniProt Q5T0N5) | -0.0896 | -0.0118 |
| FHL1_Q13642_10_FDCHYCR (UniProt Q13642) | 0.039 | -0.319 |
| FNDC3B_Q53EP0_966_LECAAAGPQSLK (UniProt Q53EP0) | -0.104 | -0.0104 |
| FHL2_Q14192_7_FDCHHCNESLFGK (UniProt Q14192) | 0.161 | 0.103 |
| FTSJ3_Q8IY81_293_VCCQDIR (UniProt Q8IY81) | 0.217 | -0.481 |
| FKBP4_Q02790_396_TQLAVCQQR (UniProt Q02790) | 0.214 | 0.0543 |
| FUT8_Q9BYC5_266_YATGGWETVFRPVSETCTDR (UniProt Q9BYC5) | 0.295 | 0.323 |
| FPGS_Q05932_111+116_GSTCAFTECILR (UniProt Q05932) | -0.124 | -0.693 |
| FLII_Q13045_46_TGLCYLPEELAALQK (UniProt Q13045) | 0.0972 | 0.0734 |
| FOCAD_Q5VW36_1243_LLVENSQQTSGFALALGNIVHGLSVCGHGK (UniProt Q5VW36) | 0.219 | -0.108 |
| FPGT_O14772_424_CSVAPGSVVEYSR (UniProt O14772) | -0.085 | -0.172 |
| FZD2_Q14332_201_YATLEHPFHCPR (UniProt Q14332) | -0.0512 | 0.183 |
| FRY_Q5TBA9_869_HCPTALSYAWPYAFTR (UniProt Q5TBA9) | 0.195 | 0.221 |
| FN1_P02751_231_CNDQDTR (UniProt P02751) | -0.26 | -0.511 |
| FRMD8_Q9BZ67_191_VQLGPYQPGRPAACDLR (UniProt Q9BZ67) | -0.218 | -0.432 |
| GAB2_Q9UQC2_237_LAQGNGHCVNGISGQVHGFYSLPK (UniProt Q9UQC2) | -0.151 | -0.33 |
| FXR1_P51114_129_CTVDVPEDLR (UniProt P51114) | 0.0929 | 0.0383 |
| FHL1_Q13642_150_GEDFYCVTCHETK (UniProt Q13642) | 0.107 | -0.0472 |
| GAK_O14976_691_YDLDACDIQEK (UniProt O14976) | -0.0675 | -0.262 |
| FKBP8_Q14318_227_KRECGNAHYQR (UniProt Q14318) | 0.125 | -0.201 |
| FLNB_O75369_991_VVPCLVTPVTGR (UniProt O75369) | 0.0447 | 0.179 |
| FZD6_O60353_123_WPEELECDR (UniProt O60353) | -0.108 | 0.0877 |

Single records (already shown). Values in the order: probe-labelled cysteine peptide fold change (10 µM) | probe-labelled cysteine peptide fold change (50 µM)
FPGS_Q05932_111+116_GSTCAFTECILR (UniProt Q05932) is listed as -0.124 | -0.693
FNDC3B_Q53EP0_966_LECAAAGPQSLK (UniProt Q53EP0) is listed as -0.104 | -0.0104
FHL1_Q13642_10_FDCHYCR (UniProt Q13642) is listed as 0.039 | -0.319

Quoted from the listing:
Entry for FKBP4_Q02790_396_TQLAVCQQR (UniProt Q02790) under probe-labelled cysteine peptide fold change (10 µM): 0.214
Entry for FTSJ3_Q8IY81_293_VCCQDIR (UniProt Q8IY81) under probe-labelled cysteine peptide fold change (50 µM): -0.481

Next entries follow:

| Target | probe-labelled cysteine peptide fold change (10 µM) | probe-labelled cysteine peptide fold change (50 µM) |
| --- | --- | --- |
| FKBPL_Q9UIM3_275_TVLHANLAACQLLLGQPQLAAQSCDR (UniProt Q9UIM3) | 0.45 | 0.459 |
| FLII_Q13045_982_QPEEDFQCIVYFWQGR (UniProt Q13045) | 0.288 | 0.568 |
| GABPB1_Q06547_331_RQCIEIIENR (UniProt Q06547) | -0.171 | 0.199 |
| FN1_P02751_470_FGFCPMAAHEEICTTNEGVMYR (UniProt P02751) | -0.00116 | -0.399 |
| FHOD1_Q9Y613_31_VQYLEDTDPFACANFPEPR (UniProt Q9Y613) | -0.0761 | 0.0496 |
| FKBP7_Q9Y680_104_GLDIAMTDMCPGEK (UniProt Q9Y680) | -0.211 | 0.0516 |
| FKBPL_Q9UIM3_168_CLESMCQGEEAELQLPGHSGPPVR (UniProt Q9UIM3) | -0.0161 | -0.274 |
| FRY_Q5TBA9_2174_IAQVCLEEK (UniProt Q5TBA9) | 0.1 | -0.0832 |
| FKRP_Q9H9S5_191_CDALDGDAVVLLR (UniProt Q9H9S5) | -0.321 | -0.0492 |
| GAK_O14976_87_AIIQEVCFMK (UniProt O14976) | -0.161 | -0.931 |
| FNDC3A_Q9Y2H6_762_CDITTAPGPPDQCKPPQVTCR (UniProt Q9Y2H6) | 0.0405 | 0.0336 |
| FN3KRP_Q9HA64_11_RELGCSSVR (UniProt Q9HA64) | 0.0934 | 0.342 |
| FXR2_P51116_151_EACSNENVHK (UniProt P51116) | 0.178 | 0.443 |
| FLAD1_Q8NFF5_409_DCTALLHLFHAAVQR (UniProt Q8NFF5) | 0.157 | 0.269 |
| FRY_Q5TBA9_1809_AFGPLWCHEDITPK (UniProt Q5TBA9) | -0.157 | -0.149 |
| FUT8_Q9BYC5_212_KLVCNINK (UniProt Q9BYC5) | -0.233 | -0.249 |
| FUCA1_P04066_296_FKPQSLPDHKWEMCTSIDK (UniProt P04066) | -0.0934 | -0.389 |
| FKBP1A_P62942_23_RGQTCVVHYTGMLEDGKK (UniProt P62942) | 0.182 | -0.301 |
| FLNB_O75369_622_EPGEYAVHIMCDDEDIK (UniProt O75369) | -0.211 | 0.0989 |
| FUBP3_Q96I24_310_CQHAAHIISELILTAQER (UniProt Q96I24) | -0.0171 | -0.0499 |
| GAK_O14976_595_SGCRPFCEVYVGDER (UniProt O14976) | 0.00365 | -0.366 |
